Library screening results

Sequences of proteins named here, by UniProt entry; tags and fusion partners are left off.
UniProt E9BF75, entry or part of it: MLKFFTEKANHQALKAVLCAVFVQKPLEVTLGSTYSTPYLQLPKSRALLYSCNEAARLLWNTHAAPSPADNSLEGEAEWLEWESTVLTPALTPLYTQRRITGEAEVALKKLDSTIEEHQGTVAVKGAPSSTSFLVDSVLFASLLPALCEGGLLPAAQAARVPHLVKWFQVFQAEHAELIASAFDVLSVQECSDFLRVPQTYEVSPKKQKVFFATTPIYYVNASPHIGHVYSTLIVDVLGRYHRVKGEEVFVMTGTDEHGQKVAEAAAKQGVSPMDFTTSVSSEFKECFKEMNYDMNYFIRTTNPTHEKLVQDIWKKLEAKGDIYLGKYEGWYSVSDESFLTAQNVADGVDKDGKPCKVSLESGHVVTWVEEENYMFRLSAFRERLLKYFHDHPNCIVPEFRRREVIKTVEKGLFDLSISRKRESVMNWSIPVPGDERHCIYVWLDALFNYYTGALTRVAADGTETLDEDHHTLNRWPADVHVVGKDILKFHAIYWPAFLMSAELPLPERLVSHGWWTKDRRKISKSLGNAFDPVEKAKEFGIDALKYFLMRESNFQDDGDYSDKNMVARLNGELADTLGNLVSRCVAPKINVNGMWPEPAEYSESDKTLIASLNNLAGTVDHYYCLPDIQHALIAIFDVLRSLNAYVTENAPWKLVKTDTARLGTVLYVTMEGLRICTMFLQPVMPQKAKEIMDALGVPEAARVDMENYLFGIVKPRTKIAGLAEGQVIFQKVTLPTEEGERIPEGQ

Data taken from ChEMBL document CHEMBL3988442, “University of Dundee, Small-Polar-MMV Screening Library” (2021).

Results are percentages, as filed.
The record does not define 0% and 100%; most values in the screen are far below 50% and negative numbers occur (in some assays of this library far below -100).
The compounds are a random part of those screened.

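Methionyl-tRNA synthetase (putative), Leishmania donovani (UniProt E9BF75). Primary screen of methionyl-tRNA synthetase; the read-out is not stated. The test concentration is not given. The values are filed as inhibition. Of about 68,000 compounds tested this way, about 24 (0.035%) reached 50% or more in at least one test.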

| compound | inhibition |
|---|---|
| `COc1cc(Cl)cc(C(=O)N2CCC3(CCCNC3)C2)c1` (stereo not shown) | 16.42% |
| `Cn1c(=O)n(C)c2nc(Br)c(CC(=O)c3ccccc3)n2c1=O` | 12.37% |
| `O=C(NCC1CCS(=O)(=O)C1)c1ccc(NC(=O)c2ccco2)cc1` (stereo not shown) | 17.48% |
| `O=C(c1cccs1)N1CC[C@H]2[C@@H]1CCC(=O)N2c1cccnc1` | 13.74% |
| `CCc1c(C(=O)N2CCOC(C)(C)C2)cnn1-c1ccccn1` | 12.45% |
| `COc1ccccc1C(=O)NC(CC(=O)O)c1cccs1` (stereo not shown) | 10.42% |
| `COc1ncccc1-c1ncccc1NC(=O)C(C)C` | 12.28% |
| `O=C(NC1CCC(N2C(=O)CCC2=O)CC1)c1c[nH]c2ccccc12` (stereo not shown) | 10.42% |
| `CC(C)Oc1cccc(CN(C)C(=O)Nc2cccn(C)c2=O)c1` | 3.343% |
| `CCCn1ccnc1CN1CCN(C2CCOCC2)CC(C(N)=O)C1` (stereo not shown) | 5.825% |
| `COc1ccc(CCNC2CCCN(c3ccc(C)nn3)C2)cc1` (stereo not shown) | 15.38% |
| `COc1ccnc(N2CCN(C(=O)N3CCOCC3)CC2)n1` | 6.286% |
| `COc1ccc(-n2cccn2)cc1S(=O)(=O)N1C[C@H](C2CC2)[C@@H](N)C1` | 7.673% |
| `COc1cc(NC(=O)NCc2cc(C)oc2C)cc(OC)c1` | 7.246% |
| `O=C(N1CCCC(n2cncn2)C1)C1(c2cccc(F)c2)CC1` (stereo not shown) | 14.25% |
| `O=C(NS(=O)(=O)Cc1ccon1)c1ccsc1` | 10.57% |
| `O=C1CC2(CCCC2)CC(=O)N1Cc1nccs1` | 5.625% |
| `COc1cc(C2(C(=O)N3CCN(CC(C)O)CC3)CC2)ccc1C` (stereo not shown) | 8.933% |
| `COc1cc2ccccc2cc1C(=O)N1CCCC(c2nncn2C)C1` (stereo not shown) | 17.13% |
| `CCN(Cc1cc(Cl)ccc1OC)Cc1nccn1C` | 14.21% |
| `O=c1[nH]c(-c2ccncc2)ncc1-c1ccnc(N2CCOCC2)n1` | 12.38% |
| `Cc1ccc(N2CCN(C(=O)[C@@H]3CCC(=O)N3)CC2=O)cc1` | 19.52% |
| `Cc1cc(N2CCN(C(=O)c3cc(Cl)c[nH]3)CC2)nc(C(C)C)n1` | 19.86% |
| `CC(=O)N1CC2(CCN(c3nccc4ccccc34)CC2)CC1C(=O)O` (stereo not shown) | 9.207% |
| `O=C(O)[C@H]1CCCN1CCOc1cccc(Cl)c1` | 8.741% |
| `Cc1cnc2n(c1=O)CC(C(=O)NCc1ccccc1Cl)CS2` (stereo not shown) | 4.885% |
| `Cc1nn(C)cc1CN(C)c1nccc(-c2cn(C)nc2C)n1` | 24.63% |
| `Cc1nc(C)n(CC2CCCN(CCNC(=O)OC(C)(C)C)C2)n1` (stereo not shown) | 7.639% |
| `Cc1ccccc1N1CCN(C(=O)c2cnn(C(C)C)c2)C(C)C1` (stereo not shown) | 5.495% |
| `CCN(CC)C(=O)CNS(=O)(=O)c1cc(Br)ccc1F` | 1.282% |
| `COCCC(=O)N1C[C@@H](c2cccc(OC)c2)[C@@]2(CCCCC(=O)N2)C1` | 11.17% |
| `CC(C)N1CCCC2(CCN(C(=O)CCCn3cccn3)C2)C1=O` (stereo not shown) | 9.341% |
| `Cc1ccc(NC2CCN(C(=O)CCCc3ccccn3)CC2)nn1` | 0.5495% |
| `CSc1nccc(NCC2CNCCO2)n1` (stereo not shown) | 5.753% |
| `O=C(C(C1CC1)C1CC1)N1CCC(n2ccnn2)CC1` | 12.81% |
| `Cc1cccc(NC(=O)N2CCC3(CC(=O)N(c4ccsc4)C3)C2)c1` (stereo not shown) | -9.936% |
| `CCOCC(=O)NCCCn1ccnc1-c1ccccc1` | 18.16% |
| `CN(Cc1cc(Br)cn1C)C(=O)c1cscn1` | 11.94% |
| `Cc1ccc(CN2CCOC3(CCN(CC4CCOC4)CC3)C2)cc1` (stereo not shown) | 12.92% |
| `Cc1nc(C)n(CC2CN(Cc3ccccc3OC(C)C)CCO2)n1` (stereo not shown) | 18.29% |
| `CC1CCCN(Cc2c(C3CCOCC3)[nH]c3ncccc23)C1` (stereo not shown) | 3.082% |
| `COCCN(Cc1cccs1)C(=O)c1ccc(=O)n(C)c1` | 15.25% |
| `CNC(=O)CSc1nc2c(cnn2Cc2ccc(F)cc2)c(=O)[nH]1` | 6.404% |
| `Cc1n[nH]c(C2CN(C(=O)c3cc(C4CC4)on3)CCO2)n1` (stereo not shown) | 6.402% |
| `O=C(NCCC1=CCCCC1)NCc1nnc2n1CCC2` | 9.449% |
| `CC(=O)c1ccc(NCc2cc3n(n2)CCCN(S(C)(=O)=O)C3)nc1` | 12.09% |

2 of the entries, repeated:

- COc1cc(Cl)cc(C(=O)N2CCC3(CCCNC3)C2)c1 (stereo not shown) | 16.42%
- Cn1c(=O)n(C)c2nc(Br)c(CC(=O)c3ccccc3)n2c1=O | 12.37%